The values that follow come from PMC13189361.

For at least one entry, the source does not settle the construct or the ends of the probe. A weaker result is weaker than the reference pair of the same experiment. Where a protein sequence is shown, tags need not be part of it. At least one verdict rests on a figure or table, not on a statement of the authors.

The target in the data set is T1, MtrA (Streptomyces venezuelae NRRL B-65442) (UniProt A0ABZ1NSU6).
T1 sequence (looked up, limits assumed): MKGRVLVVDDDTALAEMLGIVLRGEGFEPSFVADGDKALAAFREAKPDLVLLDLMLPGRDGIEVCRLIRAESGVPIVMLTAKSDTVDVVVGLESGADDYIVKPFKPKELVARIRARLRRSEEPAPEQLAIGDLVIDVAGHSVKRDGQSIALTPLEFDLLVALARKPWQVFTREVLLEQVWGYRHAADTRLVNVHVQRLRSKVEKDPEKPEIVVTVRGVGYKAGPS
Kind of data set: SPR (ReDCaT). As to conditions: Biacore 8K+, HBS-EP+ buffer, 60 s contact and 60 s dissociation, pH and temperature not stated, recombinant protein, protein details: 6xHis (pETDuet MCS1). On the technique in general: SPR reads the build-up and loss of mass on a sensor chip optically.
On to “CCCTCACCCCCCACCCCTCACTCGTGTTCCCCGCGCGCTC / GAGCGCGCGGGGAACACGAGTGAGGGGTGGGGGGTGAGGGCCTACCCTACGTCCTCCTGC [Binding_site_T1A]”, for which the binding result is recorded as “binds more weakly”. Turning to “GCGCCGACGGGGCCCGCTCCTCGTGGAGTTGACAGGTTCG / CGAACCTGTCAACTCCACGAGGAGCGGGCCCCGTCGGCGCCCTACCCTACGTCCTCCTGC [adpA_3]”, the binding result is “binds”. For “ACTCATTGCGAATCTAGCCACAGACACCGCGAAAAGGGAA / TTCCCTTTTCGCGGTGTCTGTGGCTAGATTCGCAATGAGTCCTACCCTACGTCCTCCTGC [bldM_6]”, the binding result is given as “binds”. For “GGGGGAGAAACCGGTATCAATCGGGGCGCCGACGGGGCCC / GGGCCCCGTCGGCGCCCCGATTGATACCGGTTTCTCCCCCCCTACCCTACGTCCTCCTGC [adpA_2]” the value was “binds”; for “GAGTTGACAGGTTCGTACACCCGAACCCATATGTTTTCAG / CTGAAAACATATGGGTTCGGGTGTACGAACCTGTCAACTCCCTACCCTACGTCCTCCTGC [adpA_4]”, “binds”. For “CCCTCACCCCCCACCCCTCACTCCTGATCCCCGCGCGCTC / GAGCGCGCGGGGATCAGGAGTGAGGGGTGGGGGGTGAGGGCCTACCCTACGTCCTCCTGC [Binding_site_C4G]” the value was “binds more weakly”. As for “TTGCGCTTGTCCCCTTGAAACCGTGTCGAACGGATAGGTG / CACCTATCCGTTCGACACGGTTTCAAGGGGACAAGCGCAACCTACCCTACGTCCTCCTGC [bldM_1]”, the binding result is on record as “binds”. For “TCTGTACGCGCCCCCTCACGTAGAGTGCCGAAGGGTGCCG / CGGCACCCTTCGGCACTCTACGTGAGGGGGCGCGTACAGACCTACCCTACGTCCTCCTGC [bldM_10]” the value was “binds”; for “TACTGTCTAAGTAGATGTAAATATGACTCATTGCGAATCT / AGATTCGCAATGAGTCATATTTACATCTACTTAGACAGTACCTACCCTACGTCCTCCTGC [bldM_5]”, “binds”; for “CCCCGCCGGTCCGGGTCGGTACACCTACTGTCTAAGTAGA / TCTACTTAGACAGTAGGTGTACCGACCCGGACCGGCGGGGCCTACCCTACGTCCTCCTGC [bldM_4]”, “binds”.
